The text below walks through data of publication doi:10.1101/322701 (bioRxiv, 2018).

No constants are given. Whether binding was seen depends on the method and setting. Some entries that bind do so weakly or less than the wild type. Sequences can lack the tags named with a protein.

In the experiment the target is T1, N-terminally strep-tagged GrgA (Chlamydia trachomatis) (UniProt O84512).
T1 sequence: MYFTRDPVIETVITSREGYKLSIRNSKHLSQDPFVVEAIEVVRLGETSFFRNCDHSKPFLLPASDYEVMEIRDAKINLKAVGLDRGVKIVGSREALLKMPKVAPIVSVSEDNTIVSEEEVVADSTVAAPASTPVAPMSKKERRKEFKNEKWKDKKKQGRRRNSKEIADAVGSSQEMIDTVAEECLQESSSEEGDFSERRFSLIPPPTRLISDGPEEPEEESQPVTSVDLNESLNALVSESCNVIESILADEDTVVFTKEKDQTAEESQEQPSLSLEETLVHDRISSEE
Briefly: pull-down.

B1: CS-σ^66 (natural protein, C. trachomatis, UniProt P18333 1-571, looked up)
chain: MRMDTLDSQAAEAAQEEEIQRKLEELVTLAKDQGFITYEEINEILPPSFDTPEQIDQVLIFLAGMDVQVLNQADVERQKERKKEAKELEGLAKRSEGTPDDPVRMYLKEMGTVPLLTREEEVEISKRIEKAQVQIERIILRFRYSTKEAVSIAQYLINGKERFDKIVSEKEVEDKTHFLNLLPKLISLLKEEDAYLEERLLALKDPALSKPDQARLNDELEKCRIRTQAYLRCFHCRHNVTEDFGEVVFKAYDSFLQLEQQINDLKARAERNKFAAAKLAAARRKLHKREVAAGRTLEEFKKDVRMLQRWMDKSQEAKKEMVESNLRLVISIAKKYTNRGLSFLDLIQEGNMGLMKAVEKFEYRRGYKFSTYATWWIRQAVTRAIADQARTIRIPVHMIETINKVLRGAKKLMMETGKEPTPEELGEELGFTPDRVREIYKIAQHPISLQAEVGDGGESSFGDFLEDTAVESPAEATGYSMLKDKMKEVLKTLTDRERFVLIHRFGLLDGRPKTLEEVGSAFNVTRERIRQIEAKALRKMRHPIRSKQLRAFLDLLEEEKIGSGKIKSYKN
Turning to B1, the binding entry is on record as “binds”.
